Taken from: PubChem BioAssay AID743121 (NCATS, 2013)

Screen: 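Partners whose loss is lethal together with topoisomerase I blockade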 (primary screen)
System: MDA-MB-231 cells, a human breast cancer line
Knock-down reagent: single siRNA against human genes, 20 nM siRNA (0.8 pmol per well)
Timing: 120 h (drug added 48 h after transfection, read 72 h later)
Treatment: camptothecin 20 nM (about EC30) for 72 h; vehicle 0.1% DMSO in parallel plates
Read-out: 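Cell viability by ATP luminescence (CellTiter-Glo) as % of non-targeting siRNA wells, and the log2 ratio of viability without drug over viability with camptothecin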
Direction: log2 vehicle/camptothecin viability: higher = stronger sensitisation to camptothecin
Active means: 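Each gene scored by redundant siRNA activity (RSA) over its individual siRNA ratios; a gene is called active at p < 0.001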
This is an unselected part of about 26,000 reagents tested. 167 of all reagents (0.63%) count as active. 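Calls are per gene from RSA p-values that are not deposited; an individual active-marked siRNA can sensitise only weakly.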 A number with no mark means an inactive call. Reagents against one gene are numbered here. Further read-outs or replicates are left out here.

target	reagent	log2 vehicle/camptothecin viability
CD1A (GeneID 909)	1	-0.0593
CD1A (GeneID 909)	2	0.103
CD1A (GeneID 909)	3	-0.0321
CD1A (GeneID 909)	4	0.533
PRH1 (GeneID 5554)	1	-0.173
PRH1 (GeneID 5554)	2	-0.287
PRH1 (GeneID 5554)	3	-0.511
TRPM5 (GeneID 29850)	1	-0.462
TRPM5 (GeneID 29850)	2	-0.307
TRPM5 (GeneID 29850)	3	-0.206
TRPM5 (GeneID 29850)	4	-0.0225
SOCS7 (GeneID 30837)	1	0.438
SOCS7 (GeneID 30837)	2	-0.484
SOCS7 (GeneID 30837)	3	-0.0138
SOCS7 (GeneID 30837)	4	-0.0386
NEK4 (GeneID 6787)	1	-0.682
NEK4 (GeneID 6787)	2	0.507
NEK4 (GeneID 6787)	3	-0.251
NEK4 (GeneID 6787)	4	0.15
TPCN2 (GeneID 219931)	1	-0.151
TPCN2 (GeneID 219931)	2	0.143
TPCN2 (GeneID 219931)	3	0.0626
ZNF335 (GeneID 63925)	1	-0.12
ZNF335 (GeneID 63925)	2	-0.109
ZNF335 (GeneID 63925)	3	0.557
ZNF335 (GeneID 63925)	4	-0.274
OR10H3 (GeneID 26532)	1	0.225
OR10H3 (GeneID 26532)	2	-0.293
OR10H3 (GeneID 26532)	3	0.0323
OR10H3 (GeneID 26532)	4	-0.341
GPC1 (GeneID 2817)	1	0.343
GPC1 (GeneID 2817)	2	-0.142
GPC1 (GeneID 2817)	3	0.147
GPC1 (GeneID 2817)	4	-0.262
LYPD6B (GeneID 130576)	1	-0.389
LYPD6B (GeneID 130576)	2	-0.357
LYPD6B (GeneID 130576)	3	-0.599
LYPD6B (GeneID 130576)	4	-0.19
MEX3B (GeneID 84206)	1	0.446
MEX3B (GeneID 84206)	2	-0.186
MEX3B (GeneID 84206)	3	-0.0545
MEX3B (GeneID 84206)	4	0.00869
ARSA (GeneID 410)	1	-0.24
ARSA (GeneID 410)	2	-0.232
ARSA (GeneID 410)	3	0.352
ARSA (GeneID 410)	4	0.327
NEDD4 (GeneID 4734)	1	0.12
NEDD4 (GeneID 4734)	2	0.22
NEDD4 (GeneID 4734)	3	-0.119
NEDD4 (GeneID 4734)	4	0.344
EFNB3 (GeneID 1949)	1	-0.41
EFNB3 (GeneID 1949)	2	-0.27
EFNB3 (GeneID 1949)	3	-0.0726
EFNB3 (GeneID 1949)	4	0.674
TRAM1 (GeneID 23471)	1	-0.343
TRAM1 (GeneID 23471)	2	0.189
TRAM1 (GeneID 23471)	3	-0.0729
TRAM1 (GeneID 23471)	4	-0.0822
KIF6 (GeneID 221458)	1	-0.271
KIF6 (GeneID 221458)	2	0.275
KIF6 (GeneID 221458)	3	-0.506
KIF6 (GeneID 221458)	4	-0.0151
DEGS1 (GeneID 8560)	1	0.724
DEGS1 (GeneID 8560)	2	-0.417
DEGS1 (GeneID 8560)	3	-0.0205
DEGS1 (GeneID 8560)	4	0.0227
DLG2 (GeneID 1740)	1	-0.753
DLG2 (GeneID 1740)	2	-0.0487
DLG2 (GeneID 1740)	3	0.137
DLG2 (GeneID 1740)	4	-0.158

Targets listed so far whose target name starts with C or c (4):
target	reagent	log2 vehicle/camptothecin viability
CD1A (GeneID 909)	1	-0.0593
CD1A (GeneID 909)	2	0.103
CD1A (GeneID 909)	3	-0.0321
CD1A (GeneID 909)	4	0.533
